Among the data in EP4556018A1 (OSAKA UNIVERSITY, dated 2025) are binding values, retold here.

Chains of the proteins cited; added tags and fusions are not shown. Lines headed by an entry give the natural chain unless they say otherwise; changes in a name come on top. A line that says so, or that is headed by a name, gives the form on record, which may keep a tag or linker.
UniProt Q6PDQ2: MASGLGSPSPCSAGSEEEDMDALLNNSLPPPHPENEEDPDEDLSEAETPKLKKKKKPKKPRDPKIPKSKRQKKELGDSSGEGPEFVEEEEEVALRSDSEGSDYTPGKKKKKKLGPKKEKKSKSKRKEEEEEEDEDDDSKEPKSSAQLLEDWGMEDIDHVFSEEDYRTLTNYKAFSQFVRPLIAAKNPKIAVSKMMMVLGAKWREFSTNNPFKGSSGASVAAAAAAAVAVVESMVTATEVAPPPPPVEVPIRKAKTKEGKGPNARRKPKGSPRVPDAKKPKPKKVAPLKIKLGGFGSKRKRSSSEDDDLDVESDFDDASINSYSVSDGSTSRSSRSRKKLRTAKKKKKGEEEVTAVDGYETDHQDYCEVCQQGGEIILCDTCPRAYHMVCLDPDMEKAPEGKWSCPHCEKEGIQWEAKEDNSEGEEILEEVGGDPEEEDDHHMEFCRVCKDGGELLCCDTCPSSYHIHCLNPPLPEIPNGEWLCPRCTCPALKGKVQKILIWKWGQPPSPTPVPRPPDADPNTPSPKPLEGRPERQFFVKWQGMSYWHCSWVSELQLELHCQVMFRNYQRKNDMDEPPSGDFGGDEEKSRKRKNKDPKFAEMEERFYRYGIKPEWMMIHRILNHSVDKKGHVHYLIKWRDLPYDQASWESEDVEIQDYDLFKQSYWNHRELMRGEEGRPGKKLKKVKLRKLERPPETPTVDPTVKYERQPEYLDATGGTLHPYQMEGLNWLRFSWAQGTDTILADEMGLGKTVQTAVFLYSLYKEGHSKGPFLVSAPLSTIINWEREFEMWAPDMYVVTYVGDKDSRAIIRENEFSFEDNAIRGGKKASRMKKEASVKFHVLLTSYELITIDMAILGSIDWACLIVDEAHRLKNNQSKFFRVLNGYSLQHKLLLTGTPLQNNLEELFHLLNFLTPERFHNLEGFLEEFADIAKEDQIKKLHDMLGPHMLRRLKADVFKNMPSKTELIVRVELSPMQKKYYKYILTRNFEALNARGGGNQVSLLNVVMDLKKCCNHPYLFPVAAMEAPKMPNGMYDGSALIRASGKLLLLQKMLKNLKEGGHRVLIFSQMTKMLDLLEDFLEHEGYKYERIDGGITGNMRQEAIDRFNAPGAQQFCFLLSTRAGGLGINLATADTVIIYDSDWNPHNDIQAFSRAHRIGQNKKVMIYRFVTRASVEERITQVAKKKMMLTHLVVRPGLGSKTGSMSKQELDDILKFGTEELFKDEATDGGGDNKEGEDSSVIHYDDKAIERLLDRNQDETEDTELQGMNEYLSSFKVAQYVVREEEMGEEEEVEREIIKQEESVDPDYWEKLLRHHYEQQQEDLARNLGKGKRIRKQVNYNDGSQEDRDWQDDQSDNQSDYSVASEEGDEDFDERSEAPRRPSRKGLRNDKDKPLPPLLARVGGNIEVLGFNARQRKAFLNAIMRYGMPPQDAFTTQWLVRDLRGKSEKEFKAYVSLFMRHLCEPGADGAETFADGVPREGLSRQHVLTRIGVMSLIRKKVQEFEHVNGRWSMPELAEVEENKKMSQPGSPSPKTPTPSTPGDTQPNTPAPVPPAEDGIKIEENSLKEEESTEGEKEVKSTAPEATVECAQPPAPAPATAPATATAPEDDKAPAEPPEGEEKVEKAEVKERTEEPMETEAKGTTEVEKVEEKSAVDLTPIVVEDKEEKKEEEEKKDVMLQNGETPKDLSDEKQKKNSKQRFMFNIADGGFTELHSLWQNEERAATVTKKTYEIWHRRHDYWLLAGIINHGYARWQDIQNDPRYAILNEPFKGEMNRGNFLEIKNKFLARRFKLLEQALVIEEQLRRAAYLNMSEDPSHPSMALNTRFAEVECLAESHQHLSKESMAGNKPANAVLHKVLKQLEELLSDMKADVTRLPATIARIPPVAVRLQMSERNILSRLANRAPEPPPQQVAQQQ
UniProt Q03267: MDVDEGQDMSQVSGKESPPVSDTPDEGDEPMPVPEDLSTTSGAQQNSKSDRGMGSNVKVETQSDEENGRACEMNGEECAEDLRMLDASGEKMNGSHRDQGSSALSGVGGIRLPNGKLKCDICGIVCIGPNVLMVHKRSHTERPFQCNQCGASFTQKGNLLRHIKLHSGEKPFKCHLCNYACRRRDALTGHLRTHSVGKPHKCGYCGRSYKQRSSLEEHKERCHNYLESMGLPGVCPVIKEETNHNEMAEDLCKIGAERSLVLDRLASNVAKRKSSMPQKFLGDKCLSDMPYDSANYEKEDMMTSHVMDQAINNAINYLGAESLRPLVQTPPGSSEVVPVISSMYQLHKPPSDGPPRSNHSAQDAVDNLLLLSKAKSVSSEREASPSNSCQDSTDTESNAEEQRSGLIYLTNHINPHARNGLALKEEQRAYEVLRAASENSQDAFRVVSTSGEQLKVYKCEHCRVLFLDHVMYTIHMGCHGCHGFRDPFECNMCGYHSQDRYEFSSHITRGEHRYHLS
Ikzf1ΔE5 expressed in Treg cells of Foxp3^CreIkE5^f/f mice (Q03267, form named): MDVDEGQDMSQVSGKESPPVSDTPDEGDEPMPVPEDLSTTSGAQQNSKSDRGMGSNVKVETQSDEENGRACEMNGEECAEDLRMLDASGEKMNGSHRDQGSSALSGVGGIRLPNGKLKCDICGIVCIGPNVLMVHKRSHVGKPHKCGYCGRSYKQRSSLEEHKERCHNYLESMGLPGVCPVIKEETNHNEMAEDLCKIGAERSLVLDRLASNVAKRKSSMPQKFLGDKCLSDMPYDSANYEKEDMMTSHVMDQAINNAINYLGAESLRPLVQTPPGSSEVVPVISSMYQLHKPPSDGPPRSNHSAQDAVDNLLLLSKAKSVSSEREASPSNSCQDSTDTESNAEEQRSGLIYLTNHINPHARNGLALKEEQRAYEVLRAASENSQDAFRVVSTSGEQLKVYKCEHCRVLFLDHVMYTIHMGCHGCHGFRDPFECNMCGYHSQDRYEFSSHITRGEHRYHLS

In assay [1] the target is CHD4 of mouse Treg cells (mouse) (UniProt Q6PDQ2). Briefly: immunoprecipitation of Ikzf1 from Ikzf1-expressing mouse Treg cells, Simple Western with anti-CHD4.
The target is the same in assay [2]. Briefly: immunoprecipitation with α-Ikzf1 from Ikzf1ΔE5-expressing mouse Treg cells, Simple Western with anti-CHD4.

These are yes or no findings as the source states them, for the method shown. Some binding calls cover weakened binding; strength is not graded here.

As for “endogenous Ikzf1 of mouse Treg cells (Foxp3^Cre) (from UniProt Q03267 1-517)”, the binding result in assay [1] is given as “binds”. Regarding “Ikzf1ΔE5 expressed in Treg cells of Foxp3^CreIkE5^f/f mice (from UniProt Q03267 1-517)”, in assay [2], the binding result is recorded as “binds”.
